Among all 400,000 compounds or so, about 13,000 (3.2%) were called active. Inconclusive means that the source gave no clear call. Such entries were picked first, then a sample of the others. Calls follow the shape of the dose curve; as a rule, active = well fitted cell-killing curve with a large enough effect; inconclusive = small, poorly fitted or top-dose-only effect, or effect the other way; inactive = flat fitted curve, though single readings scatter. Potencies beside an inconclusive call are fits to weak or partial responses and may not hold up.
experiment: qHTS assay for MDR1-selective chemotherapeutics: Primary screen using the drug-selected MDR subline cells KB-V1; conditions: KB-V1 MDR cells viability, CellTiter-Glo, 72 h; activity change, negative = cytotoxicity: at 46.1 µM (top of the series); also: nearly all actives have a fitted effect of over 60% in size
Outline: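 Compound-treated KB-V1 multidrug-resistant cells, 72 h, 37 degrees C; viability by CellTiter-Glo. Fitted qHTS curves give the values.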
% is scaled to controls: 0 for no effect and ±100 for the full control effect; potency is read from the fitted curve at half-maximal effect.

| Structure (SMILES) | Potency | activity change, negative = cytotoxicity |
| --- | --- | --- |
| Cc1c(NC(=O)CSc2nnc3c4ccccc4n(CCc4ccccc4)c3n2)c(=O)n(-c2ccccc2)n1C | inconclusive: 23.1 µM [cytotoxic, single point] | – |
| CC1CCN(C(=S)SCc2nc(N)nc(Nc3ccccc3)n2)CC1 | inconclusive: 13 µM [cytotoxic, partial curve, poor fit] | – |
| CCNC(=O)CSc1nnc(-c2cccs2)o1 | inconclusive: 4.11 µM [rising, full curve] | – |
| O=C1c2ccccc2-c2c1c1ccccc1c(=O)n2CCO | active: 18.4 µM | – |
| O=C(CSc1n[nH]c(=O)n1C1CC1)Nc1ccc(F)c(Cl)c1 | inconclusive: 29.1 µM [rising, single point] | – |
| COc1ccc(OC)c(NC(=O)C2CCN(S(=O)(=O)c3ccc4c(c3)OCCO4)CC2)c1 | inconclusive: 32.6 µM [cytotoxic, partial curve, poor fit] | – |
| CCOc1ccc(C(=O)NNC2CC(=O)N(CCc3ccccc3)C2=O)cc1OC (configuration not stated) | inconclusive: 14.6 µM [cytotoxic, partial curve] | – |
| Cc1cc(C)n2c(SCC(=O)Nc3cccc(S(N)(=O)=O)c3)nnc2n1 | inactive | – |
| COC(=O)C1C(c2ccc(OC)cc2)NC(=O)NC1(O)C(F)(F)Cl (configuration not stated) | inconclusive: 0.461 µM [rising, full curve, poor fit] | – |
| Cc1cc(C)cc(-n2c(N)c(C(=O)Nc3c(C)n(C)n(-c4ccccc4)c3=O)c3nc4ccccc4nc32)c1 | inconclusive: 5.17 µM [cytotoxic, full curve] | – |
| CCN(CC)S(=O)(=O)c1ccc2c(c1)C(=NO)c1cc(S(=O)(=O)N(CC)CC)ccc1-2 | active: 11.6 µM | – |
| Cc1oc(-c2cc(F)ccc2F)nc1CN(C)Cc1ccc2nccnc2c1 | inconclusive: 16.4 µM [cytotoxic, single point] | – |
| Cc1ccc2nc(-c3ccc(NS(=O)(=O)c4ccc(F)c(F)c4)cc3)sc2c1 | inactive | – |
| COc1ccc2nc3n(c(=O)c2c1)-c1cc2ccccc2cc1C(=O)NC3Cc1ccccc1 (configuration not stated) | inconclusive: 23.1 µM [cytotoxic, single point] | – |
| Cc1ccc2nc(-c3cccc(S(=O)(=O)N4CC(C)OC(C)C4)c3)cn2c1 (configuration not stated) | inconclusive: 29.1 µM [cytotoxic, single point] | – |
| COc1ccc2nc(NC(=O)CSc3nccc(C)n3)sc2c1 | active: 23.1 µM | – |
| COc1cc(NC(=O)C2CC(=O)NC3=C2C(=O)CCC3)c(OC)cc1Cl (configuration not stated) | inactive | – |
| CC(C)(C)OC(=O)[C@H](Cc1ccccc1)NC(=O)c1[nH]cnc1C(=O)N[C@@H](Cc1ccccc1)C(=O)OCc1ccccc1 | inconclusive: 29.1 µM [cytotoxic, single point] | – |
| COc1ccc(C(=O)O/N=C(\N)Cc2ccc([N+](=O)[O-])cc2)c(OC)c1 | inconclusive: 20.6 µM [cytotoxic, partial curve] | – |
| CC1(C)CC2CC(C)(CN2Cc2c(O)ccc3ccccc23)C1 (configuration not stated) | inactive | – |
| Cc1cccc(NC(=O)Cn2cc(C(=O)C3CC3)c3ccccc32)c1C | inconclusive: 7.31 µM [cytotoxic, partial curve] | – |
| Cn1c(/C(C#N)=C(\O)c2ccc(Br)s2)nc2ccccc21 | inconclusive: 29.1 µM [rising, single point] | – |
| COc1cc(/C=C(\C#N)C(=O)NCC2CCCO2)cc(OC)c1OC (configuration not stated) | inconclusive: 20.6 µM [rising, single point] | – |

Part of the list above, bar-delimited:
Structure (SMILES) | Potency | activity change, negative = cytotoxicity
CCNC(=O)CSc1nnc(-c2cccs2)o1 | inconclusive: 4.11 µM [rising, full curve] | –
O=C1c2ccccc2-c2c1c1ccccc1c(=O)n2CCO | active: 18.4 µM | –
O=C(CSc1n[nH]c(=O)n1C1CC1)Nc1ccc(F)c(Cl)c1 | inconclusive: 29.1 µM [rising, single point] | –
COc1ccc(OC)c(NC(=O)C2CCN(S(=O)(=O)c3ccc4c(c3)OCCO4)CC2)c1 | inconclusive: 32.6 µM [cytotoxic, partial curve, poor fit] | –
CCOc1ccc(C(=O)NNC2CC(=O)N(CCc3ccccc3)C2=O)cc1OC (configuration not stated) | inconclusive: 14.6 µM [cytotoxic, partial curve] | –
Cc1cc(C)n2c(SCC(=O)Nc3cccc(S(N)(=O)=O)c3)nnc2n1 | inactive | –
COC(=O)C1C(c2ccc(OC)cc2)NC(=O)NC1(O)C(F)(F)Cl (configuration not stated) | inconclusive: 0.461 µM [rising, full curve, poor fit] | –
Cc1cc(C)cc(-n2c(N)c(C(=O)Nc3c(C)n(C)n(-c4ccccc4)c3=O)c3nc4ccccc4nc32)c1 | inconclusive: 5.17 µM [cytotoxic, full curve] | –
CCN(CC)S(=O)(=O)c1ccc2c(c1)C(=NO)c1cc(S(=O)(=O)N(CC)CC)ccc1-2 | active: 11.6 µM | –
Cc1oc(-c2cc(F)ccc2F)nc1CN(C)Cc1ccc2nccnc2c1 | inconclusive: 16.4 µM [cytotoxic, single point] | –
Cc1ccc2nc(-c3ccc(NS(=O)(=O)c4ccc(F)c(F)c4)cc3)sc2c1 | inactive | –
COc1ccc2nc3n(c(=O)c2c1)-c1cc2ccccc2cc1C(=O)NC3Cc1ccccc1 (configuration not stated) | inconclusive: 23.1 µM [cytotoxic, single point] | –
Cc1ccc2nc(-c3cccc(S(=O)(=O)N4CC(C)OC(C)C4)c3)cn2c1 (configuration not stated) | inconclusive: 29.1 µM [cytotoxic, single point] | –

(cont.)

| Structure (SMILES) | Potency | activity change, negative = cytotoxicity |
| --- | --- | --- |
| COc1ccc(-c2noc(CCC(=O)Nc3ccc(C(F)(F)F)cc3)n2)cc1 | inconclusive: 29.1 µM [cytotoxic, single point] | – |
| CCOC(=O)Cn1c(=NC(=O)CC)sc2c(C)cc(C)cc21 | inactive | – |
| O=C(NCc1ccncc1)C(=O)NCC(c1ccco1)N1CCN(c2ccccc2F)CC1 (configuration not stated) | active: 2.31 µM | – |
| Cc1cc(Cl)c2ccc3ccccc3c2n1 | inactive | – |
| CCCCCCSc1cc(-c2nc3cnccn3c2NCc2ccccc2)ccc1OC | inconclusive: 29.1 µM [cytotoxic, single point] | – |
| CCc1c(C)sc(NC(=S)Nc2nc(C)cc(C)n2)c1C(=O)OC | inconclusive: 3.66 µM [cytotoxic, partial curve, poor fit] | – |
| Cc1ccc(C(=O)Nc2nc(COc3ccccc3)cs2)s1 | inconclusive: 23.1 µM [cytotoxic, single point] | – |
| CCOC(=O)c1ccc(NC(=O)c2c(Cl)cc(C)nc2C)cc1 | – | inconclusive: -6.32% |
| CC(=O)Nc1sc(N/N=C\c2ccccc2F)nc1-c1cccs1 | inconclusive: 29.1 µM [cytotoxic, single point] | – |
| CC(C)c1ccc(CCNC(=O)CCNS(=O)(=O)c2ccc(Br)cc2)cc1 | inactive | – |
| CCOc1ccc(CSC(=N)N)cc1 | inconclusive: 20.6 µM [cytotoxic, single point] | – |
| C=CCC1(CC=C)CCCN1C(=O)CC1C(=O)NCCN1Cc1cccc(OC)c1OC (configuration not stated) | inconclusive: 29.1 µM [cytotoxic, single point] | – |
| O=[N+]([O-])c1cc(S(=O)(=O)N2CCOCC2)ccc1OCc1cccc(Cl)c1 | inconclusive: 5.8 µM [cytotoxic, partial curve] | – |
| O=C(NNC(=O)c1cccnc1SCc1cccc([N+](=O)[O-])c1)c1ccc(F)cc1 | active: 16.4 µM | – |
| COC(=O)CCCCCCCC(=O)Nc1nnc(C(F)(F)F)s1 | inconclusive: 5.8 µM [rising, partial curve] | – |
| COc1ccc(/C=N/Nc2nc(-c3cccnc3)nc3ccccc23)cc1OC | inactive | – |
| CC(=O)COc1ccc2c(-c3ccccc3)cc(=O)oc2c1C | inconclusive: 23.1 µM [cytotoxic, single point] | – |
| O=C(CNS(=O)(=O)c1ccc(Br)cc1)N1CCN(c2ccc(F)cc2)CC1 | inconclusive: 4.61 µM [cytotoxic, partial curve, poor fit] | – |
| N/C(CSc1ccc(Cl)cc1)=N\S(=O)(=O)c1ccc(Cl)cc1 | inactive | – |
| O=C(CC1C(=O)NCCN1Cc1ccoc1)NCCCn1ncc2ccccc21 (configuration not stated) | inconclusive: 23.1 µM [rising, partial curve, poor fit] | – |
| COc1cc(NC(=O)C(CC(C)C)NS(=O)(=O)c2ccc3c(c2)CCN3C(C)=O)cc(OC)c1 (configuration not stated) | – | inconclusive: 11.6% |
| O=C(N/N=C1\CCc2ccccc21)c1ccccc1O | active: 20.6 µM | – |
| COc1cc(C(=O)N=c2sc3ccccc3n2C)cc(OC)c1OC | active: 4.61 µM | – |

| Structure (SMILES) | Potency | activity change, negative = cytotoxicity |
| --- | --- | --- |
| Cc1ccccc1Cn1c2ccccc2c2cnn(CC(=O)NC3CCC(C)CC3)c(=O)c21 (configuration not stated) | inconclusive: 4.61 µM [cytotoxic, full curve] | – |
| COc1cc2c(=O)n(CCC(=O)NCC3CCCO3)c(=O)n(CC(=O)Nc3ccc(C)cc3C)c2cc1OC (configuration not stated) | inconclusive: 29.1 µM [rising, single point] | – |
| COc1ccc2nc(SC(C(=O)c3ccccc3)c3ccccc3)nc(C)c2c1 (configuration not stated) | inactive | – |
| Cc1ccc(C)c(-c2csc(NC(=O)c3cnccn3)n2)c1 | inconclusive: 29.1 µM [cytotoxic, partial curve, poor fit] | – |
| CCC1CCCCN1C(=O)COc1c(Br)cc(Br)c2cccnc12 (configuration not stated) | inconclusive: 13 µM [cytotoxic, partial curve] | – |
| CCOC(=O)c1c(CN(CC)CC)oc2cc(Br)c(O)cc12 | inconclusive: 29.1 µM [cytotoxic, single point] | – |
| Cc1cc(-n2c(=S)sc3c(=O)n(-c4ccc(F)cc4)c(SCC(=O)O)nc32)ccc1Cl | – | inconclusive: 29.2% |
| N#Cc1cccnc1N1CCN(C(c2ccnc3ccccc23)c2nnnn2-c2ccc3c(c2)OCCO3)CC1 (configuration not stated) | inconclusive: 29.1 µM [cytotoxic, single point] | – |
| CC1(C)C2CC=C(/C=N/NC(=S)NCCc3ccccc3)C1C2 (configuration not stated) | inconclusive: 18.4 µM [cytotoxic, single point] | – |
| Cc1c(Br)cc(C(=O)NC2CCCCC2)c(C)c1C | inconclusive: 14.6 µM [cytotoxic, partial curve, poor fit] | – |
| Cc1ccccc1Cn1c(=O)n(Cc2ccco2)c(=O)c2ccccc21 | inconclusive: 8.2 µM [cytotoxic, partial curve] | – |
| Cc1c(Cl)cccc1NC(=S)NCCc1ccc(F)cc1 | inconclusive: 18.4 µM [cytotoxic, single point] | – |
| COc1cc(C(=O)ONC(=O)c2ccc(OC(F)F)cc2)cc(OC)c1OC | inconclusive: 20.6 µM [cytotoxic, single point] | – |
| O=C(Nc1nc2ccccc2[nH]1)c1ccc(Cl)c(S(=O)(=O)N2CCCC2)c1 | active: 14.6 µM | – |
| CCc1n[nH]c(=S)n1/N=C/c1cc(Br)c(O)c(OC)c1 | inconclusive: 18.4 µM [cytotoxic, single point] | – |
| CN(C)CCCOc1nn(Cc2ccccc2)c2ccccc12 | inconclusive: 29.1 µM [cytotoxic, single point] | – |
| CCCCC1(C2CCCC2)NC(=O)NC1=O (configuration not stated) | inconclusive: 7.31 µM [rising, partial curve] | – |
| COc1ccc2c(c1)CC/C(=C/c1ccncc1)C2=O | inconclusive: 16.4 µM [cytotoxic, partial curve, poor fit] | – |
| Cc1c(C(=O)N2CCN(c3ccccn3)CC2)sc2ncnc(N3CCN(c4ccccc4)CC3)c12 | inconclusive: 4.11 µM [cytotoxic, partial curve, poor fit] | – |
| CC(=O)Nc1ccc(/C(C)=N/NC(=O)c2ccc(F)cc2)cc1 | inconclusive: 16.4 µM [rising, single point] | – |
| CC(NC(=O)CSc1nc2ccc(N)cc2s1)c1ccccc1 (configuration not stated) | inconclusive: 14.6 µM [cytotoxic, single point] | – |
